# Source: article PMC6616311, “Reconstitution of Microtubule Nucleation In Vitro Reveals Novel Roles for Mzt1” (Current Biology, 2019)
# These are yes or no findings as the source states them, for the method shown. Binding seen in cells or lysates may run through a third protein. Some binding calls cover weakened binding; strength is not graded here.
# Target: T1, Mto1[bonsai]-mECitrine (S. pombe) (UniProt O94488)
# T1 sequence: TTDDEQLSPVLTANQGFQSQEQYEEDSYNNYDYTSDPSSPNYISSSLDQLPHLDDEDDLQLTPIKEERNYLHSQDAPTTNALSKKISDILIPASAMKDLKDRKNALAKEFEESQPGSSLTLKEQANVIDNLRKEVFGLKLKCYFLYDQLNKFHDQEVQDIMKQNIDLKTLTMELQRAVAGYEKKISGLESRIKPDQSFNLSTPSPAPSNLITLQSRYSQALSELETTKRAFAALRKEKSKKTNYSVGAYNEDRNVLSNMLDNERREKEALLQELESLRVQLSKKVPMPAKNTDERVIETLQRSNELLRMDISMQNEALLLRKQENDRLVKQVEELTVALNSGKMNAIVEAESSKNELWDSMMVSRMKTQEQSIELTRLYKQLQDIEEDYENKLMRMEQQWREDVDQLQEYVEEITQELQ
# Assay: co-IP; anti-GFP antibody on Protein G Dynabeads precipitates Mto1[bonsai]-mECitrine from S. pombe lysates (control strain KS10055 and nmt81:3xFLAG-mzt1 strain KS10059, without or with 20 μM thiamine for 16 hr); IP buffer 50 mM Tris-HCl pH 7.5, 150 mM NaCl, 0.2% Triton X-100; western blot
row,Binder,binding
1,"Alp4 (endogenous, S. pombe) (protein, UniProt Q9Y705 1-784) MVRSISSVLAKEESENGSPIPALEEGSVYHVSLKSEGVSPFSDRIQLNYLYDGKTFSDPSNLNIHQQEACLINELLNAFMGMEGVFVHLQDMKASSEFETIIMPPSFYILPGFDLGIKDIASEMLEMGSHYLSITAFIESRSHFEYGFVNHALCAALRKFVMDYVVLIMQCENQSRIDPNFSLQTLRLYTLPTSRSLRQVYLILRDLLLSMEKNASSSDDLGLSNIDDLLEQLNEGNDISHVVNATRSKKKVCKGGQVISFLTESLTKYAGDPVARKILTYLLREASRPYTKMLNEWIHLGLVNDPYDEFMIKIHKGITSMQLDEDYTDEYWEKRYVIREDQVPPQLLDLQNKVLFAGKYLNVVLECRKGVNNLASLNAKDDTQNQLLWPSTFDDDNFTLNIMNAYVYANESLLQLLQSSQSLYAHLYSLKHYFFLDQSDFFTTFLDNAQHELRKPAKYISITKLQSQLDLALRQPGTITATDPHKEYVTVEVNQTSLIDWLMHIVSISGLEEGTSSQGNEVWNESITKQADVGNETRNFESEHNRSTQGTSKVGSDKDINGFETMQLCYKVPFPLSLILSRKAIIRYQLLFRYFLLLRHVEMQLENSWVQHSKNSAWRLNSSNAKIEQWKRNSWLLRTRMLSFVQKIIYYTTSEVIETHWGKFMGELENARTVDNLMQEHIDFLDTCLKECMLTNSRLLKVQSKLLNTCAMFASYTSTFTRSLYLLENSEESFDEGRMDKMEEILRRYEDSFSRHLKSLVNACNYFASTETAALLSLVMKLTG",binds
2,"Alp6 (endogenous, S. pombe) (protein, UniProt Q9USQ2 1-832) MSEIHVKTALSRLADKYLQNSKNPSVPYTIETIVSFFQEIIHSISPDTFQLDIDDILYKIYSKIPPEENNDALFSKLSNLVSRLKSQTVIHNKSQILYFLYLLSPISQSSRDVSSHLLDESISNPINIPSTEVESSNFGQTRYDQVPENPQITDWDEGLENESSISIAHDSSRLNRSTETSSVQHTLITEADLLSSISYVLQGISTEYVQFKNELALLSKRIPVQYLLQMRALSETGLLYQELKVFSNYDPSVSQSIDGDNVSKAFINDQSLALQSLKSVISKELTNFLALIASLDSQIRADASLEKPMVTIRRCIAWTQVAKLKLRILSSVVNDNMNQENKKRLIQVVSKYNVHGDPLIQELSDKILTEITGPLYEMIENWIYKGELVDPYQEFFVKEKNGSESHDHQGQGDVVWKGKYFLDKELIPSFLSEELVDKIFLIGKSLNFARYGCGDFDWAQEHYQKLVKKLSYRDPHSLETVVDKAYTESINHLVYLMEEVFHLTDHLKAIKKYLLLGQGDFVDLLMESLGNSLDQPANTLFRHNLTASLESAIRSSNASYEPEYVLKRLDARLLELSHGETGWDVFTLEYKVDSPINVIITPYCSRQYLKIFNFLWRLKRIEFALAHSWRRVNLGERNVFRNLDYTKFEWHFVSCHLAEMIHFVCQLQYYILFEVIEISWQELQLAMEKPNATLDTYIEAHEKYVTSITHKGLLGGGKSRNEDSFLHQLHDILKVILNFHDAIELLYNFSCSLSNRIRINVPISTDALAAQYTPIKNELSNFTEEFQVRLQKLLHGLASHKDPEMRFLSVRLNYNEFYVSHRRRHDKDVTSQ",binds
3,"γ-tubulin (endogenous, S. pombe) (protein, UniProt P25295 1-446) MGREIITLQAGQCGNQIGSQFWQQLCLEHGIGPDGTLESFATEGVDRKDVFFYQSDDTRYIPRAILIDLEPRVVNNILSDTYGSLYNPENILITKNGGGAGNNWANGYSHAERIFEDIMDMIDREADGSDSLEGFSLLHSIAGGTGSGLGSFLLERLNDRYPKKIIQTYSVFPNSQSVSDVVVQPYNSLLALKRLTLNADSVVVLDNAALAHIAADRLHTQNPTFHQQNQLVSTVMSASTTTLRYPGYMNNDLVSIIASLIPSPRCHFLLTSYTPFTNQQVEEAKAIRKTTVLDVMRRLLLPKNQMVSVNPSKKSCFISILDIIQGEADPADVHKSLLRIRERRYASFIPWGPASIQVALSKKSPYIKTNHRVSGLMLANHTSIASLFKRTLDQYDRLRKRNAFLEQYKKEAIFEDDLNEFDSSRDVVADLINEYEACEDPNYLSL",binds
